Experimental data as given in the supplement of paper PMC10849652.
The list shows a part of the results.

The chains behind the UniProt entries cited, without tags or fusion partners. Where a name states a change or a piece, a line headed by the entry shows the natural chain unless it says otherwise.
UniProt O94925: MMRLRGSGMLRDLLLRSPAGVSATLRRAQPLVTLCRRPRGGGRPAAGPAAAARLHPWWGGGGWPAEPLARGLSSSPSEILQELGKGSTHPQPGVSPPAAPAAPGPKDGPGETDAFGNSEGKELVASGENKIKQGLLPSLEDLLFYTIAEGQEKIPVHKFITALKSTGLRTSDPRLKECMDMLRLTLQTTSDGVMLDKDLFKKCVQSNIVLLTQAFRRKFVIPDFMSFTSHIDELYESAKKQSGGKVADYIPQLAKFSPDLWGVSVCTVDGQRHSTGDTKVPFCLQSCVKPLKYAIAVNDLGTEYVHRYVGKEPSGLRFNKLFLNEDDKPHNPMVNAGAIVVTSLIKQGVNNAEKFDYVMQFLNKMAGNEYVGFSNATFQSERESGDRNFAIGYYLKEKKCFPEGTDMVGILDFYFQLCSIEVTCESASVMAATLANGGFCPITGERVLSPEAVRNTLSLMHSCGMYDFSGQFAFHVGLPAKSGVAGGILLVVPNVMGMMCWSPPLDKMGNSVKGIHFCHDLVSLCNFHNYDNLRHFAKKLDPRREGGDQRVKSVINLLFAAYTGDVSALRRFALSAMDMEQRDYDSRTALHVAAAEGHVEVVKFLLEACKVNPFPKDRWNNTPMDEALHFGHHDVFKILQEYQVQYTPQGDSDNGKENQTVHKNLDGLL
UniProt Q9H4G4: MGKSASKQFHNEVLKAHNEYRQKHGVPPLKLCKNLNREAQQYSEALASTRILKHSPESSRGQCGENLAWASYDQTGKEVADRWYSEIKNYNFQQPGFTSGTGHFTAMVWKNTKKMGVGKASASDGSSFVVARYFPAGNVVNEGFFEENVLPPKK
UniProt O75496: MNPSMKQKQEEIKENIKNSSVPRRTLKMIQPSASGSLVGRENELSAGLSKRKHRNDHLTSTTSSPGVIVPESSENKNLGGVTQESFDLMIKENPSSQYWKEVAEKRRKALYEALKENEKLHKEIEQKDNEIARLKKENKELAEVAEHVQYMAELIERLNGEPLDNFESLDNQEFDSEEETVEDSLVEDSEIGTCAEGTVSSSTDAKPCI
UniProt Q9HCN4, whole entry, looked up: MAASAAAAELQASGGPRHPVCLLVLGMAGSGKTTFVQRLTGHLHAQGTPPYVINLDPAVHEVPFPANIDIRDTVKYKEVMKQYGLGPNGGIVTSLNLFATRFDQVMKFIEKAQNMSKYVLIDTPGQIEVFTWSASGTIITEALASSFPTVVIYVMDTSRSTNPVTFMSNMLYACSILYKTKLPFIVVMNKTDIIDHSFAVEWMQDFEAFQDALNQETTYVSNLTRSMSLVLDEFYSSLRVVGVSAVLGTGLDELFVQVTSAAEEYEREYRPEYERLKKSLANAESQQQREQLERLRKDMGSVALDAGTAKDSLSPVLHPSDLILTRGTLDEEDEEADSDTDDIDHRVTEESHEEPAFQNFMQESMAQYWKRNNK
UniProt O75223: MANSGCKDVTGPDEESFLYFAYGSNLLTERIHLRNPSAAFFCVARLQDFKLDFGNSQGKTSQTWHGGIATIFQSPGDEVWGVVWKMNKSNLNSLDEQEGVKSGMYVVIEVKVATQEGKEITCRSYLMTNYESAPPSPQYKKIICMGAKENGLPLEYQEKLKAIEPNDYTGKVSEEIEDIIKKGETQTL
UniProt O75420: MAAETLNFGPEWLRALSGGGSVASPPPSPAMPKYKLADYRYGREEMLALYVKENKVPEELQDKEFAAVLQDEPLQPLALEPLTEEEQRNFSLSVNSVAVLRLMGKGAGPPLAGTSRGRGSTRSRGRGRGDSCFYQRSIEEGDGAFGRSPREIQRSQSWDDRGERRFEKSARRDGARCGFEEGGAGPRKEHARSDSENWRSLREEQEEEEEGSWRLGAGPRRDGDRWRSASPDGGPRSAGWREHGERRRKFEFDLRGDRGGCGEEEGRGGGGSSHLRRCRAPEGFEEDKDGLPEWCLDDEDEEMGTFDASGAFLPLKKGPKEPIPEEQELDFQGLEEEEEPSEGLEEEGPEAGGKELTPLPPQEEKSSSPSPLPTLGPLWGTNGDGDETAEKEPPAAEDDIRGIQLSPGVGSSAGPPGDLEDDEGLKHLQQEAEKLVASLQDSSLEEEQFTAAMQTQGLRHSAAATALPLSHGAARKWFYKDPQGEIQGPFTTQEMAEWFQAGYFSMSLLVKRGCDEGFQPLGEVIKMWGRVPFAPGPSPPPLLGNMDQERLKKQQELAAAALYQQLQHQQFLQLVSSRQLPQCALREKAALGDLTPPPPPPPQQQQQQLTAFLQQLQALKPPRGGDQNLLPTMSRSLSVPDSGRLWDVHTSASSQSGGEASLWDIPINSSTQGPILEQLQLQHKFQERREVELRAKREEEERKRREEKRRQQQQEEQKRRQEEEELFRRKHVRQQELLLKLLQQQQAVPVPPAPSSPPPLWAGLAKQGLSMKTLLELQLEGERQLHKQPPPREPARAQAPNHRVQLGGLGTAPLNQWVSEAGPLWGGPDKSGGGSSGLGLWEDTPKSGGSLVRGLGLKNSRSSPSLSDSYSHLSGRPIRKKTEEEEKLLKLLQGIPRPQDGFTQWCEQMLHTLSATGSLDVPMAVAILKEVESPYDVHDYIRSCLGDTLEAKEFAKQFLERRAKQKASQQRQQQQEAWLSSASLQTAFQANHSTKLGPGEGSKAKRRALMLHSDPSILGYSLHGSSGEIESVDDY
UniProt Q53GS7: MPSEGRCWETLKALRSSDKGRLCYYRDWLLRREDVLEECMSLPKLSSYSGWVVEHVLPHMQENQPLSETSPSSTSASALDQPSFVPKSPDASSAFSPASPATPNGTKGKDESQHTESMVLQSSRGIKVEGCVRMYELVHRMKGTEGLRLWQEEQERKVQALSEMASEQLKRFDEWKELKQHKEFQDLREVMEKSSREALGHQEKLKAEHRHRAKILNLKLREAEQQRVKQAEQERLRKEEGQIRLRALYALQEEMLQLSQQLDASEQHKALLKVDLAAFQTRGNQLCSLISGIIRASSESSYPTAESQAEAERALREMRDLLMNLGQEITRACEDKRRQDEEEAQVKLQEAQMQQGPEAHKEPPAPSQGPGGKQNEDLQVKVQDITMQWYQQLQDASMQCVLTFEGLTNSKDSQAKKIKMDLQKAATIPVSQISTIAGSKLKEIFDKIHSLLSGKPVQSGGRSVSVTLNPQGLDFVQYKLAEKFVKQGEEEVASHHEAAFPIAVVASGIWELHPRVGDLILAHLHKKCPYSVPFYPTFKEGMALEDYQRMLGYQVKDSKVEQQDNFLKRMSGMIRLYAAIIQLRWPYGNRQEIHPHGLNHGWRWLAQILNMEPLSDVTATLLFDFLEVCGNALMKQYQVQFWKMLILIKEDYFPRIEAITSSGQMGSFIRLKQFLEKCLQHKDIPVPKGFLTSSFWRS
UniProt P00505: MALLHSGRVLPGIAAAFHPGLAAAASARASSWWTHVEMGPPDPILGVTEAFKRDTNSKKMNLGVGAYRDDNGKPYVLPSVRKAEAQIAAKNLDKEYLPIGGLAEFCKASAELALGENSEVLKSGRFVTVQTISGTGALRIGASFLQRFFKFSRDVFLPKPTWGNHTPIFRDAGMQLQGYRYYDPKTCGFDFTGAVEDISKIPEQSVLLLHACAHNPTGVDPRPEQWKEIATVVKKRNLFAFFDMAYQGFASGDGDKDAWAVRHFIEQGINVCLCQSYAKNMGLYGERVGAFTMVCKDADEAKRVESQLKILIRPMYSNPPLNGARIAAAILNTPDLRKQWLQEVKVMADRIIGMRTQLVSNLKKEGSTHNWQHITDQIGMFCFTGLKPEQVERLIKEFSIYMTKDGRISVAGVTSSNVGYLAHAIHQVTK
UniProt P36915, whole entry, looked up: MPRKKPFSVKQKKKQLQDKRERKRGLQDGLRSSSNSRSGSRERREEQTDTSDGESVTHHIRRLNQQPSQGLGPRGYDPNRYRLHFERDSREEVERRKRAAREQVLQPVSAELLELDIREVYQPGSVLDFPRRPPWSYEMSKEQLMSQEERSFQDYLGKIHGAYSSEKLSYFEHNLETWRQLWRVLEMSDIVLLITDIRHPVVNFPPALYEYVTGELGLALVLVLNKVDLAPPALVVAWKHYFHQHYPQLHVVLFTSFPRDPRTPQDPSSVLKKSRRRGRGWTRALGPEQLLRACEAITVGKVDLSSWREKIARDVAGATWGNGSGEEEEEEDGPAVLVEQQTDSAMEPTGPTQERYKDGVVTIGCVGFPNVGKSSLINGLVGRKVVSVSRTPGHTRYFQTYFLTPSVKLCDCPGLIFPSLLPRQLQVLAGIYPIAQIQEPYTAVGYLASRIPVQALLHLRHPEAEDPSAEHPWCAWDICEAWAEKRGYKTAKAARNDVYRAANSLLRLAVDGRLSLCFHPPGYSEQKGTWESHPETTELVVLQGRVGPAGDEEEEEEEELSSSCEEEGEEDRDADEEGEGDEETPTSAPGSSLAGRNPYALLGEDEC
UniProt P08754, whole entry, looked up: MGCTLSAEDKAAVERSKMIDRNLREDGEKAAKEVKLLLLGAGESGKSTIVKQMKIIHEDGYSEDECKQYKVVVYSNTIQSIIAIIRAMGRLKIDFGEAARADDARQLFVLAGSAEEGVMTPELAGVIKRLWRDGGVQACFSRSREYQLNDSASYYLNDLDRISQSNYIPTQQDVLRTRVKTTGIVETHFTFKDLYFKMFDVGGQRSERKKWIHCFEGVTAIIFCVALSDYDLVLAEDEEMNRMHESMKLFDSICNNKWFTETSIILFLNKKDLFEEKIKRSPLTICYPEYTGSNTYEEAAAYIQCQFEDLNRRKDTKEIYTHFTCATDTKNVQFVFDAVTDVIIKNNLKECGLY
UniProt P21695: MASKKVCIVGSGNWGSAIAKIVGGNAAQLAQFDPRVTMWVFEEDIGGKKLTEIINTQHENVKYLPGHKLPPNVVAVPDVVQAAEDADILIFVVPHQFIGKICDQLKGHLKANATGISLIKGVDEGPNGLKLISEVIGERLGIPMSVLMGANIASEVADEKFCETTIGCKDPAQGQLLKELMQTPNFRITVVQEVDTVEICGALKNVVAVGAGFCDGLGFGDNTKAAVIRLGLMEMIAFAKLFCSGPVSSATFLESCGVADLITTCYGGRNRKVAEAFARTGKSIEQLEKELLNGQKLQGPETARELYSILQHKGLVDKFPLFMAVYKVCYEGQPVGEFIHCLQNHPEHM
UniProt P17900: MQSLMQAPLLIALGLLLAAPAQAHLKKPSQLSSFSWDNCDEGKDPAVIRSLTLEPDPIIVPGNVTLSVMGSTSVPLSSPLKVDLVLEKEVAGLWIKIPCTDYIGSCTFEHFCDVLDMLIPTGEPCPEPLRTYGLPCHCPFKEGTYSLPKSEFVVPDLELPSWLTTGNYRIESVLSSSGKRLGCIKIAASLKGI
UniProt Q7Z2K8: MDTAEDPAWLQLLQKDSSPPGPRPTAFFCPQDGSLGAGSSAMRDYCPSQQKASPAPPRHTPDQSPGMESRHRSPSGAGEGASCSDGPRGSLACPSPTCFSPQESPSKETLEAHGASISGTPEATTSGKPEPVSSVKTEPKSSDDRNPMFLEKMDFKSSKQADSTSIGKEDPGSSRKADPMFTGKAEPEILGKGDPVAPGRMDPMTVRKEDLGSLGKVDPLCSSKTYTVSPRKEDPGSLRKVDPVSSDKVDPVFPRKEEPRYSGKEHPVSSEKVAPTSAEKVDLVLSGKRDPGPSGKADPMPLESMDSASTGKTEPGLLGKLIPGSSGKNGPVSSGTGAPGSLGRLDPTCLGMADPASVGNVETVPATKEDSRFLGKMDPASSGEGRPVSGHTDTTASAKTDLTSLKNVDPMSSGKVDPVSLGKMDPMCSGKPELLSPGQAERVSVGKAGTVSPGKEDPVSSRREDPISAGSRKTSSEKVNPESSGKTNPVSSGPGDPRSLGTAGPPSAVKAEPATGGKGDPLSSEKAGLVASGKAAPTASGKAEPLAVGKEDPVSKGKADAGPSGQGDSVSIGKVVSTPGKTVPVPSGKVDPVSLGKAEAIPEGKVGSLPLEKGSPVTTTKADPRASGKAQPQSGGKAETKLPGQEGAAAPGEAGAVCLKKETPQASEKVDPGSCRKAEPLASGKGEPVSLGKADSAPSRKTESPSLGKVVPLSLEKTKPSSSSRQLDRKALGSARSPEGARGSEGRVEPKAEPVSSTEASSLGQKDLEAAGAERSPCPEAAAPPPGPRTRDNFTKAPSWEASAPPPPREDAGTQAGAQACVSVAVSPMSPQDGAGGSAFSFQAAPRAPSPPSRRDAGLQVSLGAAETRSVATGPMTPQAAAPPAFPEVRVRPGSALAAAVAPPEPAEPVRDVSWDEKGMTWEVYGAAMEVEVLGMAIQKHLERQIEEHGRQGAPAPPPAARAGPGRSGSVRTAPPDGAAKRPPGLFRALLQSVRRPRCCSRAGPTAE
UniProt Q13227: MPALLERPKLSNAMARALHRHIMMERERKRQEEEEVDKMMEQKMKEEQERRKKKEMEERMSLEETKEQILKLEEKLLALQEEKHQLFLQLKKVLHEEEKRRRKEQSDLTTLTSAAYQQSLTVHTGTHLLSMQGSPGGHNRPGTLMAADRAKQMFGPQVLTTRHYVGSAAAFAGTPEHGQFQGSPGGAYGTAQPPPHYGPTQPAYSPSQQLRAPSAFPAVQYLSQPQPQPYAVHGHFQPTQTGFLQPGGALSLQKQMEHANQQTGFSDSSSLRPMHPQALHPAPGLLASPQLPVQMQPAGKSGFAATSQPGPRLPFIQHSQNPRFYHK

Assays:
Experiment in all cases: log2 fold change, soluble protein after heating vs DMSO (PISA); higher = thermal stabilisation; K562 lysate, 10 uM; active = over 0.2 and 3.5 SD of the protein, either way, in both replicates (recomputed)
[1] = compound: C#Cc1cccc(Nc2ncnc3cc(OCCOC)c(OCCOC)cc23)c1 [erlotinib]
Summary of the method: (§1)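 Log-two fold change in thermal stability relative to solvent controls is reported from duplicates. For each sample, crude K562 extract from dounce-homogenised pellets in PBS pH 7.4 with 1 mM MgCl2, at 1 mg/mL protein, was treated with 10 μM compound for 30 min. Aliquots heated for 3 min across 48°C-58°C were pooled, brought to 0.5% NP-40 at 4°C and cleared at 21,000xg for 90 min. The supernatant was quantified by TMTpro 16plex LC-MS/MS with channel sums equalised.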

[2] = compound: C/C(=N\NC(=O)C1=CC(=CC=C1)S(=O)(=O)N2CCOCC2)/C3=C(C=CC(=C3)Cl)O
Summary of the method: as §1

[3] = compound: C1=CC(=CC=C1C2=NC3=C(N2)C=C(C=C3)C(=O)N)OC4=CC=C(C=C4)Cl
Summary of the method: as §1

[4] = compound: C1=CC2=C(C=CC(=C2)/C=C\3/C(=O)NC(=NCC4=CC=CS4)S3)N=C1
Summary of the method: as §1

[5] = compound: C1=CC2=NC=CN=C2C=C1/C=C/3\C(=O)NC(=O)S3
Summary of the method: as §1

[6] = compound: C1=CC=C(C=C1)C2=NC(=C(N2)C3=CC=NC=C3)C4=CC(=C(C=C4)Cl)O
Summary of the method: as §1

[7] = compound: C1=CC=C2C(=C1)C3=NNC4=CC=CC(=C43)C2=O
Summary of the method: as §1

[8] = compound: C1CCN(C1)C(=O)NC2=CC=CC(=C2)NC3=NC=C(C(=N3)NCCC4=CN=CN4)Br
Summary of the method: as §1

[9] = compound: C1CN(CCC1(CC2=CC=C(C=C2)Cl)N)C3=NC=NC4=C3C=CN4
Summary of the method: as §1

[10] = compound: C1COCCN1CCN2C3=CC=CC=C3N=C2NC(=O)C4=CC(=CC=C4)[N+](=O)[O-] [IRAK-1-4 Inhibitor I]
Summary of the method: as §1

[11] = compound: C=CC(=O)N1CCC[C@@H](n2nc(-c3ccc(Oc4ccccc4)cc3)c3c(N)ncnc32)C1 [ibrutinib]
Summary of the method: as §1

[12] = compound: CC(=O)c1cnc2ccc(-c3cc(Cl)c(O)c(Cl)c3)nc2c1N[C@H]1CC[C@H](CN(C)C)CC1
Summary of the method: as §1

[13] = compound: CC(C)(C)Cn1c(N)nc2ccc(-c3[nH]c(C(C)(C)C)nc3-c3ccc(F)cc3)nc21 [ralimetinib]
Summary of the method: as §1

[14] = compound: CC(C)(O)CC(=O)NCCn1ccc2ncnc(Nc3ccc(Oc4cccc(C(F)(F)F)c4)c(Cl)c3)c21
Summary of the method: as §1

[15] = compound: CC(C)C1=C2N=C(C=C(N2N=C1)NCC3=CC=CC=C3)NCCCCCCN
Summary of the method: as §1

[16] = compound: CC1=C(C(CC(=O)N1)C2=CC=C(C=C2)C(F)(F)F)C(=O)NC3=C(C=C4C(=C3)C=NN4)F
Summary of the method: as §1

[17] = compound: CC1=C(C2=C(C=C1)C(=O)C3=CC=CC=C3N2CCCN)C
Summary of the method: as §1

[18] = compound: CC1=C(C=C(C=C1)NC(=O)C2=CC(=CC=C2)C(C)(C)C#N)NC3=CC4=C(C=C3)N=CN(C4=O)C
Summary of the method: as §1

[19] = compound: CC1=C(C=C(C=C1)NC(=O)C2=CC(=CC=C2)N(C)C)NC(=O)C3=CC=C(C=C3)O
Summary of the method: as §1

[20] = compound: CC1=CC=C(C=C1)SC2=C3C=C(SC3=CN=C2)C(=O)N
Summary of the method: as §1

Measured: log2 fold change

GLS isoform 3 (UniProt O94925)
inactive: [1] 0.006 | [2] 0.014 | [3] -0.035 | [4] 0.047 | [5] 0.047 | [6] -0.009 | [7] -0.063 | [8] -0.009 | [9] 0.013 | [10] 0.007 | [11] -0.039 | [12] -0.017 | [13] 0.028 | [14] 0.024 | [15] 0.098 | [16] 0.007 | [17] 0.046 | [18] 0.011 | [19] 0.028 | [20] -0.034

GLIPR2 (UniProt Q9H4G4)
inactive: [1] -0.04 | [2] 0.039 | [3] -0.002 | [4] 0.026 | [5] 0.013 | [6] -0.021 | [7] 0.061 | [8] -0.009 | [9] 0.113 | [10] -0.101 | [11] -0.032 | [12] 0 | [13] -0.122 | [14] 0.045 | [15] 0.04 | [16] 0.018 | [17] -0.004 | [18] -0.037 | [19] 0.048 | [20] 0.054

GMNN (UniProt O75496)
inactive: [1] -0.006 | [2] 0.053 | [3] -0.025 | [4] -0.015 | [5] -0.003 | [6] 0.009 | [7] 0.051 | [8] 0.01 | [9] -0.026 | [10] -0.031 | [11] 0.043 | [12] 0.001 | [13] 0.013 | [14] -0.006 | [15] -0.023 | [16] -0.007 | [17] 0.028 | [18] 0.018 | [19] -0.02 | [20] -0.003

GPN1 isoform 5 (UniProt Q9HCN4)
inactive: [1] -0.018 | [2] 0.051 | [3] 0.021 | [4] 0.024 | [5] 0.007 | [6] 0.036 | [7] 0.056 | [8] -0.014 | [9] 0.03 | [10] 0.062 | [11] 0.022 | [12] 0.008 | [13] 0.062 | [14] -0.019 | [15] -0.006 | [16] 0.053 | [17] 0.008 | [18] -0.004 | [19] -0.035 | [20] -0.002

Retrieved one by one from the list above, two records:
GPN1 isoform 5 (UniProt Q9HCN4)
inactive: [1] -0.018 | [2] 0.051 | [3] 0.021 | [4] 0.024 | [5] 0.007 | [6] 0.036 | [7] 0.056 | [8] -0.014 | [9] 0.03 | [10] 0.062 | [11] 0.022 | [12] 0.008 | [13] 0.062 | [14] -0.019 | [15] -0.006 | [16] 0.053 | [17] 0.008 | [18] -0.004 | [19] -0.035 | [20] -0.002

GMNN (UniProt O75496)
inactive: [1] -0.006 | [2] 0.053 | [3] -0.025 | [4] -0.015 | [5] -0.003 | [6] 0.009 | [7] 0.051 | [8] 0.01 | [9] -0.026 | [10] -0.031 | [11] 0.043 | [12] 0.001 | [13] 0.013 | [14] -0.006 | [15] -0.023 | [16] -0.007 | [17] 0.028 | [18] 0.018 | [19] -0.02 | [20] -0.003

Further entries

GGCT (UniProt O75223)
inactive: [1] 0.024 | [2] 0.028 | [3] -0.015 | [4] -0.043 | [5] 0.019 | [6] 0.006 | [7] 0.012 | [8] -0.001 | [9] 0.031 | [10] 0.007 | [11] -0.022 | [12] -0.015 | [13] 0.003 | [14] 0.001 | [15] 0.004 | [16] -0.007 | [17] 0.011 | [18] 0.084 | [19] -0.024 | [20] -0.001

GIGYF1 (UniProt O75420)
inactive: [1] 0.067 | [2] 0.08 | [3] 0.072 | [4] -0.002 | [5] -0.091 | [6] 0.017 | [7] 0.004 | [8] 0.012 | [9] 0.012 | [10] -0.033 | [11] -0.029 | [12] -0.09 | [13] 0.003 | [14] -0.015 | [15] 0.043 | [16] 0.012 | [17] 0.062 | [18] 0.139 | [19] 0.01 | [20] -0.02

GLE1 (UniProt Q53GS7)
inactive: [1] 0.087 | [2] -0.055 | [3] -0.103 | [4] -0.084 | [5] 0.132 | [6] 0.167 | [7] 0.01 | [8] -0.118 | [9] 0.027 | [10] -0.011 | [11] -0.039 | [12] -0.011 | [13] -0.181 | [14] -0.013 | [15] -0.022 | [16] 0.006 | [17] -0.193 | [18] -0.018 | [19] 0.011 | [20] 0.129

GOT2 (UniProt P00505)
inactive: [1] -0.003 | [2] 0.011 | [3] 0.029 | [4] 0.002 | [5] -0.004 | [6] -0.007 | [7] 0.009 | [8] 0.014 | [9] 0.002 | [10] 0.003 | [11] 0.021 | [12] -0.006 | [13] 0.003 | [14] 0.003 | [15] -0.018 | [16] -0.019 | [17] -0.019 | [18] 0.007 | [19] -0.014 | [20] -0.017

GNL3L (UniProt Q9NVN8)
inactive: [1] 0.001 | [2] 0.009 | [3] 0 | [4] 0.062 | [5] -0.132 | [6] 0.103 | [7] 0.006 | [8] -0.162 | [9] -0.035 | [10] 0.016 | [11] -0.023 | [12] -0.036 | [13] -0.004 | [14] -0.086 | [15] 0.086 | [16] 0.062 | [17] -0.011 | [18] 0.04 | [19] 0.022 | [20] -0.311

GNL1 (UniProt P36915)
inactive: [1] -0.002 | [2] 0.01 | [3] -0.022 | [4] 0 | [5] -0.025 | [6] 0.007 | [7] -0.039 | [8] 0.012 | [9] -0.012 | [10] -0.006 | [11] 0.01 | [12] -0.008 | [13] -0.012 | [14] -0.024 | [15] 0.01 | [16] -0.006 | [17] 0.018 | [18] -0.016 | [19] 0.013 | [20] -0.004

GNAI3 (UniProt P08754)
inactive: [1] 0.058 | [2] 0.076 | [3] 0.011 | [4] 0.03 | [5] 0.034 | [6] 0.01 | [7] -0.001 | [8] 0.055 | [9] -0.007 | [10] 0.013 | [11] 0.027 | [12] -0.023 | [13] -0.001 | [14] 0.005 | [15] -0.056 | [16] 0.046 | [17] -0.022 | [18] 0.036 | [19] 0.039 | [20] -0.032

GPD1 (UniProt P21695)
inactive: [1] 0.078 | [2] 0.093 | [3] 0.086 | [4] -0.19 | [5] -0.025 | [6] -0.148 | [7] -0.075 | [8] -0.043 | [9] 0.093 | [10] 0.193 | [11] 0.015 | [12] -0.027 | [13] 0.006 | [14] -0.314 | [15] 0.059 | [16] 0.016 | [17] -0.096 | [18] 0.242 | [19] -0.136 | [20] -0.143

GM2A (UniProt P17900)
inactive: [1] 0.052 | [2] 0.11 | [3] -0.022 | [4] -0.04 | [5] 0.166 | [6] 0.021 | [7] -0.036 | [8] -0.012 | [9] 0 | [10] -0.054 | [11] 0.04 | [12] -0.061 | [13] -0.06 | [14] 0.02 | [15] -0.031 | [16] 0.045 | [17] 0.051 | [18] 0.045 | [19] -0.054 | [20] -0.018

GOLGA4 isoform 5 (UniProt Q13439)
inactive: [1] 0.011 | [2] -0.026 | [3] 0.021 | [4] -0.002 | [5] -0.031 | [6] 0.014 | [7] -0.052 | [8] -0.042 | [9] 0.022 | [10] 0 | [11] 0.021 | [12] 0.003 | [13] 0.018 | [14] -0.014 | [15] 0.002 | [16] 0.01 | [17] -0.006 | [18] 0.016 | [19] 0.035 | [20] -0.001

GPRIN1 (UniProt Q7Z2K8)
inactive: [1] 0 | [2] -0.006 | [3] 0.019 | [4] -0.032 | [5] -0.037 | [6] -0.024 | [7] 0 | [8] 0.016 | [9] -0.009 | [10] 0.024 | [11] 0.041 | [12] -0.031 | [13] 0.009 | [14] -0.063 | [15] 0 | [16] 0.007 | [17] -0.023 | [18] 0.018 | [19] 0.008 | [20] -0.026

GPS2 (UniProt Q13227)
inactive: [1] -0.003 | [2] 0.002 | [3] 0.105 | [4] 0.078 | [5] 0.096 | [6] -0.042 | [7] 0.019 | [8] 0.022 | [9] 0.038 | [10] 0.022 | [11] 0.005 | [12] 0.011 | [13] 0.032 | [14] 0.044 | [15] -0.002 | [16] 0.005 | [17] 0.071 | [18] -0.065 | [19] -0.027 | [20] -0.072
